Reference: the supplement of paper PMC6411743
± gives the standard deviation of the averaged measurements. The list shows a part of the results.

Sequences of proteins named here, by UniProt entry; tags and fusion partners are left off. A change or cut given only in a name is not applied to a line headed by its entry.
UniProt Q9H0A0: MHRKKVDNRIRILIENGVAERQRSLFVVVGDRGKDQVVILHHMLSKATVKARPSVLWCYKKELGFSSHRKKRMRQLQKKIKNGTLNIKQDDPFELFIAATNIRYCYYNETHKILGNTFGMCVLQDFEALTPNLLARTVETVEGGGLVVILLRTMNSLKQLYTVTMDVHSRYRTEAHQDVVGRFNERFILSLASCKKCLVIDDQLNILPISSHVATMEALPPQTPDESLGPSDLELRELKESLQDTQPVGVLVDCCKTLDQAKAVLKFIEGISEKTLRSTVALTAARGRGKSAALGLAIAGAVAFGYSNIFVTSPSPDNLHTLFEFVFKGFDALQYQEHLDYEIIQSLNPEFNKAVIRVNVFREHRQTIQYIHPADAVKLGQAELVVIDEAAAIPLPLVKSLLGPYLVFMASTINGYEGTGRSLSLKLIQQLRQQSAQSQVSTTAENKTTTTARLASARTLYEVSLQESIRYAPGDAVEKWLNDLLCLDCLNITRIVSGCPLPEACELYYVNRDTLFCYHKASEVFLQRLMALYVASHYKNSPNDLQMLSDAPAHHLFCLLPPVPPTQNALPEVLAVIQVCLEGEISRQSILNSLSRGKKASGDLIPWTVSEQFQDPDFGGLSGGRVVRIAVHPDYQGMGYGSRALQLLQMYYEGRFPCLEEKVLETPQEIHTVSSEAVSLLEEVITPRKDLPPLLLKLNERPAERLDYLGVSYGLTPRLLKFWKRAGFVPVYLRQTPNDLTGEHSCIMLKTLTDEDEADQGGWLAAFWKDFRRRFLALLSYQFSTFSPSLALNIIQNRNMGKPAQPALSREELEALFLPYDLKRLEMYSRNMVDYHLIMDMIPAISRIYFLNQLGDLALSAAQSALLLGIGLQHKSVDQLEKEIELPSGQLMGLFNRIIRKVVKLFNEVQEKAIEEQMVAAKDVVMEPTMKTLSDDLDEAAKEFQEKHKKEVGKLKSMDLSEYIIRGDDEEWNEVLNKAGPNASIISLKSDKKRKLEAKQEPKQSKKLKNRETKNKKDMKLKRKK
UniProt Q9HAV7: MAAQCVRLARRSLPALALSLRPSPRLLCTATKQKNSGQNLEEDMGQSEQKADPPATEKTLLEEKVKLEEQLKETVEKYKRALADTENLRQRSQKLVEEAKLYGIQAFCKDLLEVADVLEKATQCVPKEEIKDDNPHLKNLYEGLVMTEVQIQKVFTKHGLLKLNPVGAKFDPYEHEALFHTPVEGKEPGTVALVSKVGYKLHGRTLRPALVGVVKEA
UniProt Q9HCJ3: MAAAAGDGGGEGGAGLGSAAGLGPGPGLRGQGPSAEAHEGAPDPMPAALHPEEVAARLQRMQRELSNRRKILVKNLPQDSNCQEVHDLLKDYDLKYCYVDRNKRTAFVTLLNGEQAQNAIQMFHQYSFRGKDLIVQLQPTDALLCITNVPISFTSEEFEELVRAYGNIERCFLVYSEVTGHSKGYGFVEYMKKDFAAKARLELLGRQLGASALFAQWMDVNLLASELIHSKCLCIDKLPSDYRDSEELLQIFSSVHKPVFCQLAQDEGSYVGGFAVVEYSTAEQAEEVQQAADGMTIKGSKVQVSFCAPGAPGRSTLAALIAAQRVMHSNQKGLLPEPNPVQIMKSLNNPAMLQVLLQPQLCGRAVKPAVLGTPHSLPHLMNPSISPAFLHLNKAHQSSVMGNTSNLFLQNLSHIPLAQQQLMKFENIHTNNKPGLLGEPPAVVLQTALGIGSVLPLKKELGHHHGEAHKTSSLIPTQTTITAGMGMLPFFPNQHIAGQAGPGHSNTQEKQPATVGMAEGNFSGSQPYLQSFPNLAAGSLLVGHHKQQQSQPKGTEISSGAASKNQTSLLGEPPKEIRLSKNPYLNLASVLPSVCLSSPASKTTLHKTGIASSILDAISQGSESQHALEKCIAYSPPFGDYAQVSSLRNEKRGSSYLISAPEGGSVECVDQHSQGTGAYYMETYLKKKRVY
UniProt Q9H553: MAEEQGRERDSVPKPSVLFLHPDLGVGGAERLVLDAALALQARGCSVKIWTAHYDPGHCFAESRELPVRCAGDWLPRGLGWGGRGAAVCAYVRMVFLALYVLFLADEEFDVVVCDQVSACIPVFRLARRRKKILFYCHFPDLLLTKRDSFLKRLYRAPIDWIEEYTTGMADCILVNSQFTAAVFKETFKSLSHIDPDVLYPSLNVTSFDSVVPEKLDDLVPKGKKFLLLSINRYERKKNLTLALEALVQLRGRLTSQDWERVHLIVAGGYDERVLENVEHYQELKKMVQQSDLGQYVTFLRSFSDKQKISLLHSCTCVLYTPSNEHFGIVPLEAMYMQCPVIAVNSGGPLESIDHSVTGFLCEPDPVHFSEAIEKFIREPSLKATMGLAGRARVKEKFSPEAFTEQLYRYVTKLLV
UniProt Q9H7H0: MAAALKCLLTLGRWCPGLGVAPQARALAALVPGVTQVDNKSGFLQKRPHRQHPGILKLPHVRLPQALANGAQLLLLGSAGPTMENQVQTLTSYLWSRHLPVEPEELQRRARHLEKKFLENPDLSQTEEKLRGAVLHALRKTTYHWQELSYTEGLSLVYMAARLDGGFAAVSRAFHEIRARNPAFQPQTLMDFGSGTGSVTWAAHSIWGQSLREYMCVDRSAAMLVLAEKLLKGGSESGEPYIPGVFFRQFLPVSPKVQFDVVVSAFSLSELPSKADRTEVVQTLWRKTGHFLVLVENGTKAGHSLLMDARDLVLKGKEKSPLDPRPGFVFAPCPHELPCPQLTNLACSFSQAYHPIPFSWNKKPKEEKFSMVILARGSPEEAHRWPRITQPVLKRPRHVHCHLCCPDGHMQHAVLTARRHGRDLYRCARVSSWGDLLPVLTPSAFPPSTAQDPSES
UniProt Q9H269: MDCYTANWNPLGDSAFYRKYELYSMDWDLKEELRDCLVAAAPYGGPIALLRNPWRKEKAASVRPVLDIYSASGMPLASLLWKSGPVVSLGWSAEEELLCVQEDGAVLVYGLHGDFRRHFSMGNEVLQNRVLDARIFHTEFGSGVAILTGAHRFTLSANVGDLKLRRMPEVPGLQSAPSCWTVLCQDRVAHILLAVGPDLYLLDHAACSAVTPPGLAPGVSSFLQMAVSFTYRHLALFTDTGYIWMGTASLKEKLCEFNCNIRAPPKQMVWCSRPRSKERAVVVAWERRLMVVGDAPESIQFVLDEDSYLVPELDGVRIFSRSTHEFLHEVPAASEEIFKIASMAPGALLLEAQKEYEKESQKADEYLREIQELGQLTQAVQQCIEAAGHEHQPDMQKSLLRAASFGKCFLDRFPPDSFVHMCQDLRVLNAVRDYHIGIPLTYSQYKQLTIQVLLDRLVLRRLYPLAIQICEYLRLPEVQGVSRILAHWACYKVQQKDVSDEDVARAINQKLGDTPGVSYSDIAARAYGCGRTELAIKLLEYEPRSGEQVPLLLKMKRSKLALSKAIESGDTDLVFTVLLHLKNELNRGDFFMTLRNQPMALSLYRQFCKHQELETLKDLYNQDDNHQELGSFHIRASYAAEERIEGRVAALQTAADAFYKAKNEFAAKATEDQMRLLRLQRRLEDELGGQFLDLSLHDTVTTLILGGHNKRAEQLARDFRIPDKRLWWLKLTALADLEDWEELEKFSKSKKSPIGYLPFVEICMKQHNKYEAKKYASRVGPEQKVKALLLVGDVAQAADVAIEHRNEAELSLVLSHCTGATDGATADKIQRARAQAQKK
UniProt Q9H082: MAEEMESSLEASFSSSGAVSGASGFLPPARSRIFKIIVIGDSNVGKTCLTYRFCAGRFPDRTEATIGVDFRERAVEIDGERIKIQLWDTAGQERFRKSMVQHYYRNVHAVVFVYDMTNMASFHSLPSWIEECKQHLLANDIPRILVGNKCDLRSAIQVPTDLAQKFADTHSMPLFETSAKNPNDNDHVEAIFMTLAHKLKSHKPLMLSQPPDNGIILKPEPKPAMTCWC
UniProt Q9C0B0: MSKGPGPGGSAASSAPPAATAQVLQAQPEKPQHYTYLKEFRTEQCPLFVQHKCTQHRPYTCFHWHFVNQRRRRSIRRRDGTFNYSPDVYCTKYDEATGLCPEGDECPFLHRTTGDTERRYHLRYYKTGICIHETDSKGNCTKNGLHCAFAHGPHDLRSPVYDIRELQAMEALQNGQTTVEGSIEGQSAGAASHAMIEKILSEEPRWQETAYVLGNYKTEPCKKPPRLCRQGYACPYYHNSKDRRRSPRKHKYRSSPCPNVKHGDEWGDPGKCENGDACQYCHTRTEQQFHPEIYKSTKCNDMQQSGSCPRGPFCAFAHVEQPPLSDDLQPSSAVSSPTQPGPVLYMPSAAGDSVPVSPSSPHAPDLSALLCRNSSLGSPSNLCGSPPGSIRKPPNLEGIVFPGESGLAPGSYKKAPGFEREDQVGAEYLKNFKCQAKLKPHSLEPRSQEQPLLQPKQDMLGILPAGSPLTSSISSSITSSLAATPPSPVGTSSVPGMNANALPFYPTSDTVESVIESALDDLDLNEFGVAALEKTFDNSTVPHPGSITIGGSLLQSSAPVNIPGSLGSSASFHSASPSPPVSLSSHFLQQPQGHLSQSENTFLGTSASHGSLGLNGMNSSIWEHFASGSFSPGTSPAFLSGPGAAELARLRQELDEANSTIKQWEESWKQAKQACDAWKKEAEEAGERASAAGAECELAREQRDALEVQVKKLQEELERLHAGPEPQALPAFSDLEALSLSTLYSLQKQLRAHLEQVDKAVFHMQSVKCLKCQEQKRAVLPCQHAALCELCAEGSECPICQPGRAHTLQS
UniProt Q9NPD8: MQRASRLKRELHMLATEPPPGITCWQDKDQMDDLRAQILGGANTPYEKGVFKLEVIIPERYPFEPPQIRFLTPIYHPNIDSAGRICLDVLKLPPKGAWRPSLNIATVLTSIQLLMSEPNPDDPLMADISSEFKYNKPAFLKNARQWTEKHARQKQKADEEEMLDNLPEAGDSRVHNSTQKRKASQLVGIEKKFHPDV
UniProt Q9HCG8: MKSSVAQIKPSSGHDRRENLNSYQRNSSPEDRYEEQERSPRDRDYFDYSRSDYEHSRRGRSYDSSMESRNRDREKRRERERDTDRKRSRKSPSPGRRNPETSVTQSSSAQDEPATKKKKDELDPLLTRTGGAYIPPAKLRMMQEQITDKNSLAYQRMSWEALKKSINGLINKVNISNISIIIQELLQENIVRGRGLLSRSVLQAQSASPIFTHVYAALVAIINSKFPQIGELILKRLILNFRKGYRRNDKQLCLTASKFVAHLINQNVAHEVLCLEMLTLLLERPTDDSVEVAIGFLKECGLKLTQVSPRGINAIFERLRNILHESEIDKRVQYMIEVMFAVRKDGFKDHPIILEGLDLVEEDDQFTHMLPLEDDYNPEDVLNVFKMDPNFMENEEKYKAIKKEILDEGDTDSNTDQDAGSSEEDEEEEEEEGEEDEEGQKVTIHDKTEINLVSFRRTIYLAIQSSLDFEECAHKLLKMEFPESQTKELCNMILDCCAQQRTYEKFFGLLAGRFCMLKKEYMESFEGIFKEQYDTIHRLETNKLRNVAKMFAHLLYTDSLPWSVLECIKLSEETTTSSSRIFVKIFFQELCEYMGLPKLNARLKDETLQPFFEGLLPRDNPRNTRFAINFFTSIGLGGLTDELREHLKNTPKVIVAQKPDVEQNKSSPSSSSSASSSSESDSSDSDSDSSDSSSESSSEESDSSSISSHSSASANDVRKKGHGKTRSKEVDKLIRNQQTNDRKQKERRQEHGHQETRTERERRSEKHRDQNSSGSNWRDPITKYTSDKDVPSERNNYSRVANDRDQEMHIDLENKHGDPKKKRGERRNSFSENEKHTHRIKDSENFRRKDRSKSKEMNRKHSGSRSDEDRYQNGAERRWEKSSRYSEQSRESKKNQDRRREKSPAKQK
UniProt Q9H0J9: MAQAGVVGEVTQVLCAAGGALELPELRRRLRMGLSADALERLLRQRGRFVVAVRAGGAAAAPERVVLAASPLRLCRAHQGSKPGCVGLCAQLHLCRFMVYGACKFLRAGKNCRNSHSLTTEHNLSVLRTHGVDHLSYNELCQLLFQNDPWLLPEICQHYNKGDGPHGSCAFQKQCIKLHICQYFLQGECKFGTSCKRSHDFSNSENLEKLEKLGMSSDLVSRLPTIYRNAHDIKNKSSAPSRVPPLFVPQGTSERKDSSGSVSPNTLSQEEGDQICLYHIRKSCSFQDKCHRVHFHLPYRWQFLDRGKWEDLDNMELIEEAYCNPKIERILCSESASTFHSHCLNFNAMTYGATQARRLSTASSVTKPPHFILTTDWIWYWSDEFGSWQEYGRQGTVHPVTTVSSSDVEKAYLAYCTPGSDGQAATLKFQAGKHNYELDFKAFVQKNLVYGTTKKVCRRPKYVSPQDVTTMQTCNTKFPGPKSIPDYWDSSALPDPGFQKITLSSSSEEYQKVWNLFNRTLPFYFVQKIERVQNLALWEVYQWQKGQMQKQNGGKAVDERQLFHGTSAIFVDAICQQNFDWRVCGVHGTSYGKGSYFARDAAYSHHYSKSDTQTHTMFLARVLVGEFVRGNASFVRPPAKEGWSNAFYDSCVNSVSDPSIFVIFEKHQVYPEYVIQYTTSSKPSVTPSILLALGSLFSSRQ
UniProt Q9NRP2: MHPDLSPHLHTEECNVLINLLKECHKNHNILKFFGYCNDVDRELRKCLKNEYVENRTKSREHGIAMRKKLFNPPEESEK

Compound: Nc1nc2c(ncn2[C@@H]2O[C@H](COP(=O)(O)OP(=O)(O)OP(=O)(O)O)[C@@H](O)[C@H]2O)c(=O)[nH]1 [guanosine triphosphate]
Assay: NP40-soluble protein abundance relative to vehicle (solubility fold change) (ratio); higher = more soluble protein in presence of GTP
How it was run: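 Values are fold changes against the detergent-processed vehicle, based on vsn-normalised intensities. Jurkat crude lysate was treated at eight concentrations from 0.1 to 10 mM (10 min at room temperature, then 3 min at 37 °C), solubilised with 0.8% NP40 and benzonase, ultracentrifuged and analysed by TMT-labelled LC-MS/MS over three independent experiments.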

Target	NP40-soluble protein abundance (concentration: 0.1mM)	NP40-soluble protein abundance (concentration: 0.5mM)	NP40-soluble protein abundance (concentration: 1mM)	NP40-soluble protein abundance (concentration: 2mM)	NP40-soluble protein abundance (concentration: 4mM)	NP40-soluble protein abundance (concentration: 6mM)	NP40-soluble protein abundance (concentration: 8mM)	NP40-soluble protein abundance (concentration: 10mM)
NAT10 (UniProt Q9H0A0)	1.07 ± 0.065	1.04 ± 0.061	1.02 ± 0.063	1.07 ± 0.065	1.2 ± 0.079	1.31 ± 0.085	1.37 ± 0.077	1.59 ± 0.11
GRPEL1 (UniProt Q9HAV7)	0.9614 ± 0.008	0.932 ± 0.03	1.01 ± 0.046	0.941 ± 0.015	0.935 ± 0.054	0.96 ± 0.049	1.02 ± 0.056	1.04 ± 0.016
UniProt Q9HCJ3 and related entries	0.998 ± 0.096	1.06 ± 0.05	0.997 ± 0.074	1.01 ± 0.12	0.982 ± 0.05	0.999 ± 0.086	0.966 ± 0.062	1 ± 0.11
UniProt Q9H7E2-3|Q9H7E2 and related entries	1.07 ± 0.085	1 ± 0.082	1.07 ± 0.047	1.07 ± 0.05	1.05 ± 0.023	1.07 ± 0.028	1.14 ± 0.045	1.19 ± 0.023
ALG2 (UniProt Q9H553)	1.01 ± 0.15	1.04 ± 0.015	0.853 ± 0.024	0.983 ± 0.026	0.887 ± 0.033	0.934 ± 0.041	0.894 ± 0.04	0.928 ± 0.039
UniProt Q9H7H0 and related entries	1.06 ± 0.028	1.11 ± 0.083	1.03 ± 0.071	1.098 ± 0.0012	1.15 ± 0.11	1.17 ± 0.1	1.11 ± 0.099	1.12 ± 0.037
CUTC (UniProt Q9NTM9)	1.04 ± 0.1	1.05 ± 0.11	0.904 ± 0.061	0.944 ± 0.11	0.932 ± 0.079	0.913 ± 0.075	0.863 ± 0.026	0.861 ± 0.066
VPS16 (UniProt Q9H269)	1.09 ± 0.077	1.09 ± 0.12	1.09 ± 0.043	1.06 ± 0.054	1.07 ± 0.049	1.01 ± 0.022	1.08 ± 0.063	0.98 ± 0.041
RAB33B (UniProt Q9H082)	1.1 ± 0.096	1.04 ± 0.074	0.927 ± 0.07	0.986 ± 0.14	0.98 ± 0.093	0.945 ± 0.12	0.904 ± 0.064	0.926 ± 0.072
UNK (UniProt Q9C0B0)	0.998 ± 0.038	1.04 ± 0.021	1.07 ± 0.011	1.08 ± 0.032	1.09 ± 0.021	1.113 ± 0.0062	1.15 ± 0.093	1.18 ± 0.061
UBE2T (UniProt Q9NPD8)	0.968 ± 0.056	0.961 ± 0.068	1.04 ± 0.011	0.994 ± 0.035	0.946 ± 0.077	0.962 ± 0.052	0.933 ± 0.1	0.947 ± 0.13
MED4 (UniProt Q9NPJ6)	1 ± 0.067	0.96 ± 0.074	1.06 ± 0.057	1.05 ± 0.1	1.08 ± 0.11	1.12 ± 0.056	1.11 ± 0.053	1.09 ± 0.12
PHAX (UniProt Q9H814)	0.991 ± 0.068	0.987 ± 0.073	1.01 ± 0.087	0.991 ± 0.07	0.976 ± 0.061	1.01 ± 0.067	0.998 ± 0.043	1.03 ± 0.077
CWC22 (UniProt Q9HCG8)	0.965 ± 0.065	0.981 ± 0.071	1.01 ± 0.041	0.936 ± 0.088	0.911 ± 0.078	0.908 ± 0.092	0.964 ± 0.1	0.978 ± 0.12
PARP12 (UniProt Q9H0J9)	1.05 ± 0.085	1.11 ± 0.1	0.947 ± 0.038	1.02 ± 0.067	0.97 ± 0.045	0.934 ± 0.036	0.928 ± 0.027	0.881 ± 0.055
UniProt Q9NRP2	1.05 ± 0.072	1.05 ± 0.059	1.02 ± 0.067	0.966 ± 0.084	0.917 ± 0.11	0.918 ± 0.11	0.916 ± 0.069	0.904 ± 0.044
UniProt Q9NQ88	0.905 ± 0.08	0.914 ± 0.088	0.884 ± 0.078	0.85 ± 0.1	0.833 ± 0.093	0.831 ± 0.093	0.819 ± 0.056	0.819 ± 0.08
PTPN23 (UniProt Q9H3S7)	0.991 ± 0.03	0.984 ± 0.035	0.955 ± 0.041	0.959 ± 0.041	0.941 ± 0.048	0.936 ± 0.044	0.926 ± 0.066	0.93 ± 0.062
BOLA2 (UniProt Q9H3K6)	0.949 ± 0.085	0.85 ± 0.12	0.972 ± 0.067	0.857 ± 0.09	0.97 ± 0.07	0.848 ± 0.072	0.927 ± 0.11	0.855 ± 0.071
UniProt Q9H3H1 and related entries	1.08 ± 0.12	1.11 ± 0.18	1.25 ± 0.12	1.14 ± 0.074	1.07 ± 0.096	1.17 ± 0.15	1.24 ± 0.24	1.09 ± 0.12

Copied from the list:
Under NP40-soluble protein abundance (concentration: 2mM), NAT10 (UniProt Q9H0A0) has 1.07 ± 0.065
Under NP40-soluble protein abundance (concentration: 0.1mM), PHAX (UniProt Q9H814) has 0.991 ± 0.068
